Results as given in PubChem BioAssay AID493014 (National Center for Advancing Translational Sciences (NCATS), 2011).
The campaign covered roughly 340,000 compounds. About 170 (0.05%) were called active. The inconclusive results got no clear call from the source; some entries with a clear call stand among them for comparison. Calls follow the shape of the dose curve; as a rule, active = well fitted inhibition curve with a large enough effect in the signal ratio, with a control signal flat (not every such curve was filed as active); inconclusive = small, poorly fitted or top-dose-only effect, or effect the other way, or a change in a side signal; inactive = flat fitted curve, though single readings scatter; the % refers to the signal ratio. Where the call is inconclusive, the potency comes from a doubtful curve fit.

Experiment: qHTS Assay to Find Inhibitors of Chronic Active B-Cell Receptor Signaling;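 as to activity change, negative = inhibition: plate controls were basal doxycycline-induced cells for no effect and cells given 10 µM MG132 for full effect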
Conditions: ABC-DLBCL IkBa-CBG/CBR reporter, luminescence ratio (green luciferase fused to IkBa over red control in TMD8 lymphoma cells), 4 h; activity change, negative = inhibition: at 46.1 µM (top of the series)
Method in brief: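 TMD8 human ABC-DLBCL cells with doxycycline-inducible IκBα–green luciferase fusion and unfused red luciferase, in 0.5% FBS medium; compounds up to 46 uM, 4 h at 37C. Green/red luminescence ratio, filter-overlap corrected, fitted to concentration-response curves.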
Potency is read from the fitted curve at half-maximal effect.

Row | Structure (SMILES) | activity change, negative = inhibition | Potency
1 | CC(C)(C)C(=O)NNC(=O)c1cc2sccc2s1 | inconclusive: 16.3% | 
2 | CCOC(=O)C1CCN(C(=O)c2cc(C(C)(C)C)nn2Cc2ccccc2)CC1 | inconclusive: 10.8% | 
3 | COc1ccc(NC(=O)C2CCCN(S(=O)(=O)c3cccs3)C2)cc1OC (stereo not given) | inconclusive: -23.4% | 
4 | NS(=O)(=O)c1ccc(CNC(=S)Nc2ccc(F)c(Cl)c2)cc1 | inactive | 
5 | C=CC[C@H](CC(=O)NCCO)C(=O)N[C@@H](C)COC(=O)[C@@H](CC=C)CC(=O)OC(C)(C)C | inconclusive: 1.28% | 
6 | O=C(COc1ccc(Cl)cc1)Nc1ccccc1CO |  | inconclusive: 15.8 µM [falling, partial curve, poor fit]
7 | Cc1cc(=O)oc2c(C)c(OCC(=O)N3CCC(C(=O)O)CC3)ccc12 |  | inconclusive: 22.4 µM [falling, single point]
8 | Cc1ccc(S(=O)(=O)N(C)CC(=O)NNC(=O)CCNS(=O)(=O)c2cccc(C)c2)cc1 | inactive | 
9 | O=C(Nc1cccc2ccccc12)N1CCN(Cc2ccc3c(c2)OCO3)CC1 |  | inconclusive: 10.3 µM [falling, partial curve, poor fit]
10 | O=[N+]([O-])c1cccc(/C=N/Nc2nccnc2Cl)c1 | inconclusive: -9.06% | 
11 | CNc1nnc(-c2ccco2)s1 | inconclusive: 6.57% | 
12 | O=C(NCC1CCCO1)C1CC(c2ccccc2Cl)=NO1 (stereo not given) | inconclusive: 6.08% | 
13 | O=C(NCC(c1cccnc1)N1CCN(c2ccccc2F)CC1)OCc1ccccc1 (stereo not given) | inconclusive: 2.16% | 
14 | CCc1nc(SCC(=O)N2CCCc3ccccc32)c2oc3ccccc3c2n1 | inconclusive: 12.2% | 
15 | CCCCc1cc(O)c(CCCC)c(O)c1 |  | inconclusive: 35.5 µM [cytotoxic, single point]
16 | CCn1c(=O)cc(OCC(=O)NC2CCCCC2)c2ccccc21 |  | inconclusive: 7.31 µM [falling, partial curve, poor fit]
17 | COc1ccc(N(CC(=O)NCc2ccc(F)cc2)C(=O)c2snc(C(N)=O)c2N)cc1 | inactive | 
18 | O=C(Nc1ccccc1F)Nc1ccccc1F |  | inconclusive: 15.8 µM [falling, partial curve]
19 | CC(C)(C)c1ccc(C2(C)NC(=O)N(CC(=O)Nc3ccc4c(c3)OCO4)C2=O)cc1 (stereo not given) |  | inconclusive: 18.4 µM [falling, single point]
20 | CCOC(=O)C1=C(COC(=O)c2cc(S(=O)(=O)N(C)C)ccc2C)NC(=O)NC1C (stereo not given) | inconclusive: -0.211% | 
21 | COc1ccc(NS(=O)(=O)c2cc(N/C(=N\S(=O)(=O)c3ccccc3)c3ccc(F)cc3)ccc2Cl)cc1 | inactive | 
22 | Cc1ccc(C(=O)c2nc3c(n2O)CCCC3)cc1 |  | inconclusive: 29.1 µM [falling, partial curve]
23 | O=[N+]([O-])c1ccc(COc2cccc3cccnc23)cc1 | inactive | 
24 | O=c1cc(N2CCc3ccccc32)[nH]c(=O)n1-c1ccc(Cl)cc1 |  | inconclusive: 17.8 µM [falling, partial curve]
25 | COc1ccc2sc(NC(C)=O)nc2c1 | inconclusive: -1.43% | 
26 | CC(C)(C)NS(=O)(=O)c1ccc(NS(C)(=O)=O)cc1 | inconclusive: -15.4% | 
27 | O=C(COc1ccc(Cl)cc1)Nc1ccc(C(=O)O)cc1NC(=O)COc1ccc(Cl)cc1 |  | inconclusive: 22.4 µM [falling, partial curve]

As a working copy, some entries already given:
Row | Structure (SMILES) | activity change, negative = inhibition | Potency
1 | CC(C)(C)C(=O)NNC(=O)c1cc2sccc2s1 | inconclusive: 16.3% | 
2 | CCOC(=O)C1CCN(C(=O)c2cc(C(C)(C)C)nn2Cc2ccccc2)CC1 | inconclusive: 10.8% | 
3 | COc1ccc(NC(=O)C2CCCN(S(=O)(=O)c3cccs3)C2)cc1OC (stereo not given) | inconclusive: -23.4% | 
4 | NS(=O)(=O)c1ccc(CNC(=S)Nc2ccc(F)c(Cl)c2)cc1 | inactive | 
5 | C=CC[C@H](CC(=O)NCCO)C(=O)N[C@@H](C)COC(=O)[C@@H](CC=C)CC(=O)OC(C)(C)C | inconclusive: 1.28% | 
6 | O=C(COc1ccc(Cl)cc1)Nc1ccccc1CO |  | inconclusive: 15.8 µM [falling, partial curve, poor fit]

(further entries)

Row | Structure (SMILES) | activity change, negative = inhibition | Potency
28 | COc1ccccc1-c1ccc(Nc2cccc(C(C)=O)c2)nn1 |  | inconclusive: 14.6 µM [falling, single point]
29 | COc1ccc(N2C(=O)CSC23CCCCC3)cc1 | inconclusive: 2.67% | 
30 | CCOC(=O)c1c(C2CC2)csc1NC(=O)CSCc1c(C)noc1C | inconclusive: 6.63% | 
31 | COc1ccc(OC)c(NC(=O)c2nc(S(=O)(=O)Cc3ccccc3)ncc2Cl)c1 | inconclusive: 28.4% | 
32 | COc1ccc(OC)c(NC(=O)CSc2nc3ccccc3c(=O)n2CCNC(C)=O)c1 | inconclusive: -1.45% | 
33 | CN(CC(=O)Nc1ccccc1C(F)(F)F)C(=O)c1cccc(-n2cccc2)c1 | inconclusive: -1.6% | 
34 | CCc1ccc(/C=C/c2c([N+](=O)[O-])c(=O)n(C)c(=O)n2C)cc1 |  | inconclusive: 25.1 µM [falling, single point]
35 | O=C(O)CCCNC(=O)OCc1ccccc1 | inactive | 
36 | CC(=O)Nc1ccc(NC(=O)CSc2nnc(-c3cc(C)[nH]n3)n2N)cc1 | inconclusive: 0.219% | 
37 | CCOc1ccc(C)cc1S(=O)(=O)n1cnc2ccccc21 | inconclusive: -2.27% | 
38 | O=C(Cc1ccc(Cl)cc1)Nc1ccc(N2CCCC2)cc1 | inactive | 
39 | COc1cc(/C=N/NC(=O)c2cccc(N3CCCC3=O)c2)ccc1O | inactive | 
40 | COc1ccc(C(=O)OCC(=O)Nc2cccc(C(C)=O)c2)cc1OC |  | inconclusive: 12.6 µM [falling, partial curve, poor fit]
41 | CN(C)c1nc(NCc2ccccc2)nc(N/N=C/c2ccccc2F)n1 | inconclusive: -6.02% | 
42 | CCOCCCNC1=C(Cl)C(=O)c2ccccc2C1=O | inconclusive: 15.1% | 
43 | Cc1nnc(SCC(=O)Nc2cccc(S(=O)(=O)N(C)c3ccccc3)c2)s1 | inactive | 
44 | CCOc1ccccc1C(=O)Nc1ccccc1-c1ccccc1 | inactive | 
45 | Cc1cccnc1NC(=O)c1ccc2nc(N)sc2c1 |  | inconclusive: 8.2 µM [falling, partial curve, poor fit]
46 | CN(Cc1ccco1)c1ncnc2ccc(-c3ccccc3Cl)cc12 | inactive | 
47 | CC(=O)NC(CC(=O)Nc1nc(C)cs1)c1ccccc1 (stereo not given) | inconclusive: 14.6% | 
48 | CCOc1ccc(Br)cc1C1=CC(=O)C[C@H](c2ccc(OC)cc2)C1 |  | inconclusive: 16.4 µM [falling, partial curve, poor fit]
49 | CC1(C)CC(=O)C2=C(C1)O[C@@]1(CCCCN3C(=O)c4ccccc4C3=O)Cc3cc(C#N)ccc3C2O1 |  | inconclusive: 2.24 µM [activator, partial curve, poor fit]
50 | COc1ccc(CONS(=O)(=O)c2ccc(NC(C)=O)cc2)cc1Cl | inactive | 
51 | CCCCn1nc(C(=O)NCc2ccccc2CN2CCCC2)c2ccccc2c1=O |  | inconclusive: 18.4 µM [rising, partial curve]
52 | CCCCN(CC)C(=S)Nc1ccc2nc(N3CCN(C)CC3)cc(C)c2c1 | inconclusive: -7.35% | 
53 | CC(=O)NC1C(=O)N(Cc2ccccc2)c2ccc(Br)cc21 (stereo not given) | inconclusive: 3.4% | 
54 | Cc1noc(C)c1NC(=O)Nc1ccc2c(c1)C(=O)N([C@H](C)CO)C[C@H](C)[C@H](CN(C)C)O2 | inactive | 

Row | Structure (SMILES) | activity change, negative = inhibition | Potency
55 | CC(C)c1nnc(NC(=O)CSc2ccccc2)s1 | inconclusive: -0.649% | 
56 | COc1ccc(CC(=O)Nc2nnc(C)s2)cc1 | inconclusive: -25% | 
57 | N#CC(C#N)=CC1=C2OC(c3ccccc3)=CC(c3ccccc3)=C2CCC1 | inconclusive: -1.27% | 
58 | Cc1ccc(N2CCN(S(=O)(=O)c3ccc4oc(=O)ccc4c3)CC2)cc1Cl | inactive | 
59 | COc1cc2c(cc1OC)C(=S)NC(C)(C)C2 | inconclusive: 3.01% | 
60 | COc1ccc2sc(-c3ccc(N(C)C)cc3)c(-c3ccc4cc[nH]c4c3)c2c1 | inconclusive: 6.76% | 
61 | S=c1nc(-c2ccccc2)oc2c1CCCC2 | inactive | 
62 | CSc1ccccc1OCc1cc(C(=O)NCCCn2nc(C)cc2C)no1 |  | inconclusive: 11.2 µM [falling, partial curve]
63 | COc1ccc(NC(=S)N2CCC(NC(=O)c3cccc(C)c3)CC2)cc1 | inconclusive: -3.58% | 
64 | CCCc1ncc(CN2CCCC(C(=O)Nc3ccc(-c4cccc(OC)c4)cc3)C2)cn1 (stereo not given) |  | inconclusive: 11.2 µM [falling, partial curve]
65 | C/C(CCc1ccccc1)=N\NC(=O)COc1ccccc1C | inconclusive: -1.18% | 
66 | O=C(NNC(=O)C1COc2ccccc2O1)c1ccccc1O (stereo not given) |  | inconclusive: 5.8 µM [falling, partial curve]
67 | CSc1ccc(/C=N\Nc2nncn2N)cc1 |  | inconclusive: 35.5 µM [falling, single point]
68 | Cc1ccccc1CN1C(=O)c2ccccc2Sc2ccc(C(=O)O)cc21 | inconclusive: 1.96% | 
69 | COC(=O)N1N=C(c2ccc(Br)cc2)CC1(O)C(F)(F)F (stereo not given) | inconclusive: 8.96% | 
70 | O=S(=O)(NCCc1ccccc1)c1cccc2cccnc12 |  | inconclusive: 6.31 µM [falling, single point]
71 | Cc1ccc(C(=O)OC2OC(=O)C(Cl)=C2N2CCOCC2)cc1 (stereo not given) | inconclusive: -1.14% | 
72 | Cc1ccc(-c2nnc(N3CCN(C(=O)COc4cccc(C)c4)CC3)c3ccccc23)cc1 | inactive | 
73 | Cc1csc(NC(=O)CNS(=O)(=O)c2cccs2)n1 | inconclusive: 0.8% | 
74 | COc1ccc(CNC(=O)C2CCN(S(=O)(=O)c3ccc4nc5c(c(C(=O)O)c4c3)CCCC5)CC2)cc1 | inactive | 
75 | CCC(C)/C=C/C1=CC2=C(Cl)C(=O)C3(C)OC(=O)C(C(=O)C(C)C(C)O)C3C2=CO1 (stereo not given) | inconclusive: 22.5% | 
76 | O=C(Nc1ccc(-n2cccn2)cc1)C1CCCCN1Cc1cccc2cccnc12 (stereo not given) | inconclusive: -2.45% | 
77 | CC(=O)N=C1SC2CS(=O)(=O)CC2N1c1c(Cl)cccc1Cl (stereo not given) | inactive | 
78 | CC1(C)CC(O)CC(C)(C)N1CC(O)COCc1ccccc1 (stereo not given) | inactive | 
79 | COC(=O)C1CC23C=CCN4CCC5(c6ccccc6NC15C2C)C43 (stereo not given) |  | inconclusive: 6.31 µM [falling, full curve]
80 | O=S1(=O)CCC(N=Nc2c(O)n(Cc3ccccc3)c3ccccc23)C1 (stereo not given) |  | inconclusive: 15.8 µM [falling, single point]
